Laboratory results: patent US20240102021A1
These are yes or no findings as the source states them, for the method shown. Binding seen in cells or lysates may run through a third protein. Some results given as binding are weak or reduced against the parent protein; the word gives no strength.

The chains behind the UniProt entries cited, without tags or fusion partners.
UniProt P41968: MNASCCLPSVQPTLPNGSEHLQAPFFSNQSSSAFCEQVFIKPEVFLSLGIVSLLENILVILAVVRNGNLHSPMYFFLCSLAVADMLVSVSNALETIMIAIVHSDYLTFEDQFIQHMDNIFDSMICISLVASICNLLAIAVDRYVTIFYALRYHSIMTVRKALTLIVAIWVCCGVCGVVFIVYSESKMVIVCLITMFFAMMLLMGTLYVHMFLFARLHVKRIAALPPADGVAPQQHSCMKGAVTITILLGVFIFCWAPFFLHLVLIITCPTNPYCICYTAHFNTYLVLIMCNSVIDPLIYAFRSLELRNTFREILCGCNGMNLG
UniProt P32245: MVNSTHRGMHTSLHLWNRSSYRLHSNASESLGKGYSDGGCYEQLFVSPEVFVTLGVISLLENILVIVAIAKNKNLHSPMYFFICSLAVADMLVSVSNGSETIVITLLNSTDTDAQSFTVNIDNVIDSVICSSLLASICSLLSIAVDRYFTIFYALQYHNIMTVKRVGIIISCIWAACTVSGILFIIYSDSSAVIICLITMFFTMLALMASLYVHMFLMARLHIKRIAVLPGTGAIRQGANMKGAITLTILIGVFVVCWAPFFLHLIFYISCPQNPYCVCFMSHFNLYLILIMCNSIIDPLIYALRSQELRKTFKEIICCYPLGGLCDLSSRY
UniProt Q9H1Y3: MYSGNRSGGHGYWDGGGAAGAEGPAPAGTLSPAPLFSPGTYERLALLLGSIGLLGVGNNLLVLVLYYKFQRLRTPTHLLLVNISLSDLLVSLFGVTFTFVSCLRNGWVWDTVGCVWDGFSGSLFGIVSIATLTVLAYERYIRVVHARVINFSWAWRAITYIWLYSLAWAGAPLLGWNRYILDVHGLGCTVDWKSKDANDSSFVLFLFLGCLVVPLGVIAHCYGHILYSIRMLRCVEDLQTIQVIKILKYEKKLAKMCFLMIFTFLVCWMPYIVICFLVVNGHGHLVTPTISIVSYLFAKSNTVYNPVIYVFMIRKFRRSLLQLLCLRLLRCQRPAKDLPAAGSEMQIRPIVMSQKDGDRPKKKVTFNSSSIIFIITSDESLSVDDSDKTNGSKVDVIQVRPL

Columns and labels:
MC3R-nHA [1] = molecular target: MC3R-nHA (UniProt P41968); assay: co-immunoprecipitation, HEK293 cells, IP anti-FLAG, blot anti-HA
MC4R-nHA [2] = molecular target: MC4R-nHA (UniProt P32245); assay: as above
MC3R-nHA [3] = molecular target: MC3R-nHA (UniProt P41968); assay: co-immunoprecipitation, GT1-7 cells, IP of OPN3-FLAG, blot anti-HA
MC4R-nHA [4] = molecular target: MC4R-nHA (UniProt P32245); assay: as above
MC3R-nHA [5] = molecular target: MC3R-nHA (UniProt P41968); assay: co-immunoprecipitation, GT1-7 mouse hypothalamic neurons
MC4R-nHA [6] = molecular target: MC4R-nHA (UniProt P32245); assay: as above

Measured: binding

OPN3-cFLAG (from UniProt Q9H1Y3 1-402) (receptor)
binds: all assays above
